# Assay results taken from paper PMC8384837.
# Residue numbers refer to the chain shown, from its start. Some of the results follow. For part of these data: At the low end of the ranking the order means little.
# What was measured:
# Conditions in all cases: yeast three-hybrid, YBZ-1, SC-Leu-His + 0.5 mM 3-AT, 4 days
# [1] = biological target: T1, PUM1 PUF domain R5-AAD C1007A + R1008A + Q1011D (UniProt Q14671)
# T1 sequence: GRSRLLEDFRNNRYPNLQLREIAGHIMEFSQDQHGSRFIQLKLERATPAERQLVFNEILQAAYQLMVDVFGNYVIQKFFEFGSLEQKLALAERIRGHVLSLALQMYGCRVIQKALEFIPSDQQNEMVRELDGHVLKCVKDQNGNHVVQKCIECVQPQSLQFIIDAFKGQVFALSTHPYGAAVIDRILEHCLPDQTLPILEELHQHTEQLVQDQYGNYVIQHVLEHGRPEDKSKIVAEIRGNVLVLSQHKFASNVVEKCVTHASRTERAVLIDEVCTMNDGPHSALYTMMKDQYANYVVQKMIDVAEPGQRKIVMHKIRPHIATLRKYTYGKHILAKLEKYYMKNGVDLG
# [2] = biological target: T2, PUM1 PUF domain R5-AFF C1007A + R1008F + Q1011F (UniProt Q14671)
# T2 sequence: T1 sequence with A181F, D184F
# [3] = biological target: T3, PUM1 PUF domain R5-AFY C1007A + R1008F + Q1011Y (UniProt Q14671)
# T3 sequence: T1 sequence with A181F, D184Y
# [4] = biological target: T4, PUM1 PUF domain R5-AGD C1007A + R1008G + Q1011D (UniProt Q14671)
# T4 sequence: T1 sequence with A181G
# [5] = biological target: T5, PUM1 PUF domain R5-AYF C1007A + R1008Y + Q1011F (UniProt Q14671)
# T5 sequence: T1 sequence with A181Y, D184F
# [6] = biological target: T6, PUM1 PUF domain R5-AYY C1007A + R1008Y + Q1011Y (UniProt Q14671)
# T6 sequence: T1 sequence with A181Y, D184Y
# [7] = biological target: T7, PUM1 PUF domain R5-DFL C1007D + R1008F + Q1011L (Homo sapiens) (UniProt Q14671)
# T7 sequence: T1 sequence with A180D, A181F, D184L
# [8] = biological target: T8, PUM1 PUF domain R5-DFP C1007D + R1008F + Q1011P (UniProt Q14671)
# T8 sequence: T1 sequence with A180D, A181F, D184P
# [9] = biological target: T9, PUM1 PUF domain R5-DGA C1007D + R1008G + Q1011A (UniProt Q14671)
# T9 sequence: T1 sequence with A180D, A181G, D184A
# [10] = biological target: T10, PUM1 PUF domain R5-DHG C1007D + R1008H + Q1011G (Homo sapiens) (UniProt Q14671)
# T10 sequence: T1 sequence with A180D, A181H, D184G
# [11] = biological target: T11, PUM1 PUF domain R5-DHW C1007D + R1008H + Q1011W (UniProt Q14671)
# T11 sequence: T1 sequence with A180D, A181H, D184W
# [12] = biological target: T12, PUM1 PUF domain R5-DQE C1007D + R1008Q + Q1011E (UniProt Q14671)
# T12 sequence: T1 sequence with A180D, A181Q, D184E
# [13] = biological target: T13, PUM1 PUF domain R5-DRD C1007D + Q1011D (Homo sapiens) (UniProt Q14671)
# T13 sequence: T1 sequence with A180D, A181R
# [14] = biological target: T14, PUM1 PUF domain R5-DRL C1007D + Q1011L (Homo sapiens) (UniProt Q14671)
# T14 sequence: T1 sequence with A180D, A181R, D184L
# [15] = biological target: T15, PUM1 PUF domain R5-DWW C1007D + R1008W + Q1011W (Homo sapiens) (UniProt Q14671)
# T15 sequence: T1 sequence with A180D, A181W, D184W
# [16] = biological target: T16, PUM1 PUF domain R5-DYF C1007D + R1008Y + Q1011F (UniProt Q14671)
# T16 sequence: T1 sequence with A180D, A181Y, D184F
# [17] = biological target: T17, PUM1 PUF domain R5-EAC C1007E + R1008A + Q1011C (Homo sapiens) (UniProt Q14671)
# T17 sequence: T1 sequence with A180E, D184C
# [18] = biological target: T18, PUM1 PUF domain R5-EAE C1007E + R1008A + Q1011E (UniProt Q14671)
# T18 sequence: T1 sequence with A180E, D184E
# [19] = biological target: T19, PUM1 PUF domain R5-EFD C1007E + R1008F + Q1011D (UniProt Q14671)
# T19 sequence: T1 sequence with A180E, A181F
# [20] = biological target: T20, PUM1 PUF domain R5-EGE C1007E + R1008G + Q1011E (UniProt Q14671)
# T20 sequence: T1 sequence with A180E, A181G, D184E
# [21] = biological target: T21, PUM1 PUF domain R5-ERK C1007E + Q1011K (Homo sapiens) (UniProt Q14671)
# T21 sequence: T1 sequence with A180E, A181R, D184K
# [22] = biological target: T22, PUM1 PUF domain R5-ESE C1007E + R1008S + Q1011E (Homo sapiens) (UniProt Q14671)
# T22 sequence: T1 sequence with A180E, A181S, D184E
# [23] = biological target: T23, PUM1 PUF domain R5-EVC C1007E + R1008V + Q1011C (Homo sapiens) (UniProt Q14671)
# T23 sequence: T1 sequence with A180E, A181V, D184C
# [24] = biological target: T24, PUM1 PUF domain R5-FFV C1007F + R1008F + Q1011V (UniProt Q14671)
# T24 sequence: T1 sequence with A180F, A181F, D184V
# [25] = biological target: T25, PUM1 PUF domain R5-FHI C1007F + R1008H + Q1011I (Homo sapiens) (UniProt Q14671)
# T25 sequence: T1 sequence with A180F, A181H, D184I
# [26] = biological target: T26, PUM1 PUF domain R5-FNG C1007F + R1008N + Q1011G (Homo sapiens) (UniProt Q14671)
# T26 sequence: T1 sequence with A180F, A181N, D184G
# [27] = biological target: T27, PUM1 PUF domain R5-FNS C1007F + R1008N + Q1011S (UniProt Q14671)
# T27 sequence: T1 sequence with A180F, A181N, D184S
# [28] = biological target: T28, PUM1 PUF domain R5-GFL C1007G + R1008F + Q1011L (UniProt Q14671)
# T28 sequence: T1 sequence with A180G, A181F, D184L
# [29] = biological target: T29, PUM1 PUF domain R5-GFY C1007G + R1008F + Q1011Y (UniProt Q14671)
# T29 sequence: T1 sequence with A180G, A181F, D184Y
# [30] = biological target: T30, PUM1 PUF domain R5-GGE C1007G + R1008G + Q1011E (UniProt Q14671)
# T30 sequence: T1 sequence with A180G, A181G, D184E
# [31] = biological target: T31, PUM1 PUF domain R5-GHA C1007G + R1008H + Q1011A (Homo sapiens) (UniProt Q14671)
# T31 sequence: T1 sequence with A180G, A181H, D184A
# [32] = biological target: T32, PUM1 PUF domain R5-GHL C1007G + R1008H + Q1011L (Homo sapiens) (UniProt Q14671)
# T32 sequence: T1 sequence with A180G, A181H, D184L
# [33] = biological target: T33, PUM1 PUF domain R5-GKH C1007G + R1008K + Q1011H (Homo sapiens) (UniProt Q14671)
# T33 sequence: T1 sequence with A180G, A181K, D184H
# [34] = biological target: T34, PUM1 PUF domain R5-GLW C1007G + R1008L + Q1011W (UniProt Q14671)
# T34 sequence: T1 sequence with A180G, A181L, D184W
# [35] = biological target: T35, PUM1 PUF domain R5-GNW C1007G + R1008N + Q1011W (UniProt Q14671)
# T35 sequence: T1 sequence with A180G, A181N, D184W
# [36] = biological target: T36, PUM1 PUF domain R5-GQA C1007G + R1008Q + Q1011A (UniProt Q14671)
# T36 sequence: T1 sequence with A180G, A181Q, D184A
# [37] = biological target: T37, PUM1 PUF domain R5-GQS C1007G + R1008Q + Q1011S (UniProt Q14671)
# T37 sequence: T1 sequence with A180G, A181Q, D184S
# [38] = biological target: T38, PUM1 PUF domain R5-GQW C1007G + R1008Q + Q1011W (UniProt Q14671)
# T38 sequence: T1 sequence with A180G, A181Q, D184W
# [39] = biological target: T39, PUM1 PUF domain R5-GRA C1007G + Q1011A (Homo sapiens) (UniProt Q14671)
# T39 sequence: T1 sequence with A180G, A181R, D184A
sequence,measurement,setting,value
GGCUAGAACUAGUGGAUCCCCCGGCGCCCGGCGGCUCGAGCCCGGGUAAGUGUCAAUAGUCUGCAUGCCGCCGGGCGCCAUGCCUGCAGGUCGACUCUAGAAAACAUG,binding signal (log2 enrichment (interaction score)),[1],< -5.66
same,binding signal (log2 enrichment (interaction score)),[2],< -6.52
same,binding signal (log2 enrichment (interaction score)),[3],< -7.32
same,binding signal (log2 enrichment (interaction score)),[4],< -6.28
same,binding signal (log2 enrichment (interaction score)),[5],< -7.19
same,binding signal (log2 enrichment (interaction score)),[6],< -5.9
same,binding signal (log2 enrichment (interaction score)),[7],-1.22
same,binding signal (log2 enrichment (interaction score)),[8],< -6.79
same,binding signal (log2 enrichment (interaction score)),[9],< -8.11
same,binding signal (log2 enrichment (interaction score)),[10],0.49
same,binding signal (log2 enrichment (interaction score)),[11],< -7.62
same,binding signal (log2 enrichment (interaction score)),[12],< -7.13
same,binding signal (log2 enrichment (interaction score)),[13],-0.33
same,binding signal (log2 enrichment (interaction score)),[14],-1.06
same,binding signal (log2 enrichment (interaction score)),[15],-3.75
same,binding signal (log2 enrichment (interaction score)),[16],-8.25
same,binding signal (log2 enrichment (interaction score)),[17],-3.15
same,binding signal (log2 enrichment (interaction score)),[18],< -6.03
same,binding signal (log2 enrichment (interaction score)),[19],< -5.64
same,binding signal (log2 enrichment (interaction score)),[20],< -6.14
same,binding signal (log2 enrichment (interaction score)),[21],0.27
same,binding signal (log2 enrichment (interaction score)),[22],-1.43
same,binding signal (log2 enrichment (interaction score)),[23],-0.4
same,binding signal (log2 enrichment (interaction score)),[24],-3.77
same,binding signal (log2 enrichment (interaction score)),[25],0.35
same,binding signal (log2 enrichment (interaction score)),[26],-3.8
same,binding signal (log2 enrichment (interaction score)),[27],-4.54
same,binding signal (log2 enrichment (interaction score)),[28],< -5.58
same,binding signal (log2 enrichment (interaction score)),[29],-2.63
same,binding signal (log2 enrichment (interaction score)),[30],-4.3
same,binding signal (log2 enrichment (interaction score)),[31],-1.19
same,binding signal (log2 enrichment (interaction score)),[32],0.36
same,binding signal (log2 enrichment (interaction score)),[33],0.2
same,binding signal (log2 enrichment (interaction score)),[34],< -6.58
same,binding signal (log2 enrichment (interaction score)),[35],< -6.54
same,binding signal (log2 enrichment (interaction score)),[36],-3.16
same,binding signal (log2 enrichment (interaction score)),[37],-2.59
same,binding signal (log2 enrichment (interaction score)),[38],< -6.28
same,binding signal (log2 enrichment (interaction score)),[39],-1.55

# Some of the entries above in another layout.
sequence	measurement	setting	value
GGCUAGAACUAGUGGAUCCCCCGGCGCCCGGCGGCUCGAGCCCGGGUAAGUGUCAAUAGUCUGCAUGCCGCCGGGCGCCAUGCCUGCAGGUCGACUCUAGAAAACAUG	binding signal (log2 enrichment (interaction score))	[13]	-0.33
same	binding signal (log2 enrichment (interaction score))	[31]	-1.19
